# Laboratory results reported in patent publication US20250360119A1, “THIAZOLIDINEDIONES FOR THE TREATMENT OF MUSCULAR DYSTROPHIES” (The Johns Hopkins University, priority 2022, published 2025).
# Entries after “also recorded” stand apart in the source; their conditions may differ. Like-named read-outs stand apart in the source and are kept apart here. At least one structure is not confirmed: it was looked up by name or label, or the drawing left a doubt.
# Experiments:
# [1] = tested on: D2.mdx and D2.mdx-μDysTg mice; assay: planned comparison of pioglitazone and rosiglitazone in DMD and BMD mouse models
# [2] = tested on: D2.mdx mice; assay: proof-of-concept 4-week pioglitazone trial in 1- and 2-mo D2.mdx mice; type: in vivo, mouse
# [3] = tested on: D2.mdx mice; assay: pilot trial of pioglitazone in older (8 month-old) D2.mdx mice, diaphragm fibrosis and regeneration; conditions: 10 mg/kg daily, 4 weeks, begun at 8 months of age, vs vehicle
# [4] = cited from earlier work
# [5] = tested on: PPARγ; conditions: gastrocnemius, 2-mo D2.mdx, Pio-treated vs vehicle; for expression of Glucocorticoid Receptor (GR) target genes / expression of known PPARγ target genes (target engagement): 10× Visium
# [6] = preclinical data; cited from earlier work
# [7] = 10 mg/kg, 4-week treatment, 1- and 2-mo D2.mdx mice, gastrocnemius and quadriceps muscles, vs vehicle
SMILES,anticipated disease outcome [1],"CSA (muscle fiber cross-sectional area) [2, 7]","areas of necrotic fibers and inflammation (H&E stain) [2, 7]","in vivo muscle function ([2]; 10 mg/kg, 4-week treatment, 1- and 2-mo D2.mdx mice, vs vehicle)","overall effect on dystrophic muscle (summary of FIG. 3 and FIG. 4) ([2]; D2.mdx mice, treatment at early and late (8 months) stages)",diaphragm fibrosis (Masson's trichrome) [3],regenerating muscle fibers (eMyHC staining) [3],diaphragm fibrosis (Masson's trichrome) ([3]; listed as Pio),myocardial infarction and ischemic strokes ([4]; clinical data),cardiac function ([4]; patients receiving pioglitazone),inflammatory areas / inflammatory gene expression (Spp1) [5],regenerative areas (Myl3 expression) [5],expression of Glucocorticoid Receptor (GR) target genes [5],expression of known PPARγ target genes (target engagement) [5],expression of Glucocorticoid Receptor (GR) target genes ([5]; listed as Pioglitazone),expression of known PPARγ target genes (target engagement) ([5]; listed as Pioglitazone),inflammatory areas / inflammatory gene expression (Spp1) ([5]; listed as Pioglitazone),regenerative areas (Myl3 expression) ([5]; listed as Pioglitazone),pulmonary hypertension [6]
CN(CCOc1ccc(CC2SC(=O)NC2=O)cc1)c1ccccn1 (centres unmarked) [rosiglitazone],"slower disease progression, enhanced regenerative MF activity, improved muscle structure, functional improvements in regeneration, and inflammatory response",–,–,–,–,–,–,–,–,–,–,–,–,–,–,–,–,–,–
CCc1ccc(CCOc2ccc(CC3SC(=O)NC3=O)cc2)nc1 (centres unmarked) [pioglitazone],"slower disease progression, enhanced regenerative MF activity, improved muscle structure, functional improvements in regeneration, and inflammatory response; also recorded: may have an overall larger benefit",increased CSA,reduced areas of necrotic fibers and inflammation,improves in vivo muscle function,positively affects dystrophic muscle phenotype; also recorded: improves muscle structure and function and reduces fibrosis,significant decreases in diaphragm fibrosis,increase in embryonic myosin heavy chain (eMyHC) staining; also recorded: increases regeneration,reduced,reduces myocardial infarction and ischemic strokes,improved cardiac function,reduced inflammatory gene expression,increased areas of regeneration,does not activate GRs,induction of known PPARγ target genes,unchanged with treatment,induces known PPARγ target genes,decrease in inflammatory areas,increase in regenerative areas,reduces pulmonary hypertension; also recorded: efficacy in preventing pulmonary hypertension
